# Test results as given in PubChem BioAssay AID1508600 (Functional Genomics Laboratory (NCATS/FGL), 2020).
# Hit rate of the full screen: of about 53,000 sequences, about 3,700 (7%) were called active.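 Rule for the calls: active = gene knockdowns whose robust z-score for IL-1 alpha signal is at least 2 or at most -2, so actives lie on both sides; inactive = the rest.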 Some of the results follow.
# Assay: Components of the Cytosolic LPS Sensing Pathway: Gene Identification via Genome-wide siRNA Screen
# Conditions: RAW264.7 macrophages, IL-1a HTRF, actives lie on both sides, screened at 100 nM (by protocol), cells primed 5 h with Pam3CSK4 first
# Description: Non-canonical inflammasome activation by cytosolic LPS is a critical component of the host response to Gram-negative bacterial infection, however we lack a comprehensive understanding of the cellular processes that control this pathway. Here we describe a genome-wide siRNA screen to identify genes regulating the mouse macrophage IL-1 alpha response to cytosolic LPS.
# RAW264.7 cells were maintained in complete DMEM media, comprising DMEM with 4.5 g/L glucose, 10% FBS (Gemini Bio-Products, West Sacramento, CA), 2 mM Glutamine (Lonza) and 20 mM HEPES (Lonza), hereafter complete DMEM.
# The RNAi screen was conducted in 384-well format using the Ambion Silencer Mouse Genome siRNA Library (#4391425), which consists of three unique, nonoverlapping, nonpooled siRNAs for each of 17,000 gene targets. siRNA reagents ([…]) were stamped into 384-well white flat-bottom microplates (Corning, 3570) using a Velocity11 VPrep liquid handling system (Agilent) integrated into a BioCel robotic platform (Agilent) in columns 1-22, leaving columns 23-24 empty for negative (Ambion, Negative control #1) and positive (mouse Casp4) controls, respectively. The median value of each plate's negative control column was used to normalize sample wells, and the positive control was used to assess transfection efficiency and assay performance.
# Lipofectamine RNAiMAX Transfection Reagent ([…]; Invitrogen) was added in […] serum-free, antibiotic-free media to plate wells using a Thermo Scientific Matrix WellMate and Microplate Stacker. Plates were incubated for 45 min at room temperature to allow for the sufficient formation of siRNA-lipid complexes. Cells were seeded at a density of 1x10^4 cells per well in 20 microL media containing 20% (vol/vol) FBS without antibiotics. The final concentration of siRNA in each well was 100 nM. Cells were cultured for 48h at 37 degrees C in 5% CO2 before addition of […] of TLR ligand Pam3CSK4 for 5 hours. The medium was then removed, replaced with […] growth media and cell were transfected with […] of LipidA and TransIT-TKO (Mirus) for 24 hour. At the end of the LipidA treatment, […] of supernatant was transferred to a 384 Greiner Bio-one non-binding low volume plate and […] of IL-1a HTRF reagent (Cisbio, 62MIL1APEH) was added and incubated at room temperature overnight. The plates were read on an EnVision plate reader (PerkinElmer). Cell viability was measured by adding 20ul Cell Titer Glo to the original plate and running a luminescence read on the EnVision. The quantified IL-1a signal for each siRNA gene-targeted well was divided by the median of the negative control wells and multiplied by 100 to achieve a negative control normalized value for each well/siRNA. This normalized value was then used to generate a robust z-score by first taking the log of each value and then by subtracting the median and dividing by the […].
row,Sequence,z-score
1,GCUUACCAAUUGAAAACUGTT against Terf1,inactive: -0.142
2,GGCAAGCUUCCAGAUCGAATT against Adam23,inactive: 0.0113
3,CGUUGUCAGUGUAAAUAUUTT against Osbpl6,inactive: -0.83
4,GGUGUUGAACCUCAUCCAGTT against Tom1,inactive: 0.491
5,GGCAUGGCUGGCAAAAACATT against Ppp1r15a,inactive: -1.85
6,GGUUUAUAGGCCUUCUUCCTT against Flot2,inactive: -0.763
7,GGUCUUUGGAAAAGACACUTT against Gramd3,inactive: 1.46
8,GGCUGUUCUACGAAGAAAATT against 4921517D22Rik,inactive: 0.231
9,GGGAAUUCACACUGUCUGGTT against Tmem176a,inactive: -1.73
10,GCUCAAAUAACUCCACCACTT against Pola1,inactive: -1.73
11,GGAUAAAAAGGAUAAGAGCTT against Prps1l1,inactive: -0.44
12,CCUACAUCCUCGCUUUUGCTT against Ptcd2,inactive: -0.106
13,GGAGGCCCAAUGAUUAGCATT against Ntan1,inactive: -0.151
14,GGCAACUUGCUCAUCAUUGTT against Olfr1356,inactive: -0.142
15,CCUAUACCGAGCAAACAUCTT against Crebbp,inactive: -0.869
16,GCUCACCACGCUAAACUGUTT against Trpm6,inactive: 1.44
17,CCGGCUCAUCCAUUAUUGGTT against Atp6v0b,inactive: -1.08
18,GGUUUUCUACAGGAGAGACTT against 9430015G10Rik,inactive: 1.33
19,GUAGAGGUUAUAUAGCAGATT against Ms4a6d,inactive: 0.494
20,GGAGGACUGCCAGAAAUACTT against Myd88,inactive: -0.0402
21,GGCCUCAGCAUUUAUCUGGTT against Rtca,inactive: -0.782
22,GCUGUAAGGAGGAACUUCUTT against Btg1,inactive: -1.03
23,GGAGUAUGCGUGUUGCCAATT against 1700018B08Rik,inactive: -1.65

# Some values from the results shown.
# For z-score, CCUACAUCCUCGCUUUUGCTT against Ptcd2 is entered as inactive: -0.106
# For z-score, GGUGUUGAACCUCAUCCAGTT against Tom1 is entered as inactive: 0.491
# For z-score, GUAGAGGUUAUAUAGCAGATT against Ms4a6d is entered as inactive: 0.494
# For z-score, GCUUACCAAUUGAAAACUGTT against Terf1 is entered as inactive: -0.142

# Next records:

row,Sequence,z-score
1,GGUAAAUGACAACUUUCUUTT against Slco6b1,active: 2.92
2,GGAGGUUCAGCAACGCAUUTT against Prss43,inactive: 0.0194
3,GGUGAAGCAAAACGGAGGATT against H2-M10.1,inactive: 0.512
4,GGACAGUUCUCUCUGCACUTT against Prss50,inactive: -0.465
5,GGUGUUUGUUAACUACUCGTT against Fam171b,inactive: 0.592
6,GGCAGUAGCAUUUAGAAGGTT against Socs3,inactive: -0.628
7,GGAUUUUCCUGAUGAGGUUTT against Cdk5rap1,inactive: -0.0503
8,GUGCAGGUCCUAAUCUGAATT against Asb1,active: 2.15
9,GGCUUUCAAGCUAACUGAUTT against Sf3b2,active: -2.39
10,GGGAAUUCCUCAGUUCAAATT against Adam7,inactive: 0.27
11,CCACACUGUAUAAUACAAUTT against Il20rb,inactive: 1.82
12,GAGGCUGUUAGAGAAAACGTT against Frat2,inactive: -0.773
13,GGAGGCUCAAGUCCAUCACTT against A930104D05Rik,inactive: -0.36
14,GGAAGUGAUUGAAAUGGUGTT against Ror1,inactive: -0.893
15,GGAGAAAAAACUAAAGGAGTT against Abca3,inactive: -0.0651
16,GGUAGAAGAGAGCUUCAACTT against Alg12,inactive: 0.411
17,CGUAUGCAGAACAACAUUUTT against Klhl2,inactive: 1.77
18,GGUCUUUUGGUUCCAGAUCTT against Ak4,inactive: 0.292
19,GGAAUCGUUUUUGCUUAGATT against Rsrc1,inactive: 1.31
20,GCAGUGUAGAACUAGGCUGTT against Taf1c,inactive: -0.154
21,GAAUCUAAAGAUGAACACCTT against 0610009B22Rik,inactive: 0.8
22,GCAUGAGAGGUUUCAGUAUTT against Rnf150,inactive: 0.454
23,GCUCCUGAUCAAAUAAAGUTT against Ldhb,inactive: 0.279

row,Sequence,z-score
1,GGAUAAAUGUCACAGAGCUTT against Cd200,inactive: -0.093
2,CGAUAUAGAAUUGUUACAGTT against Nf1,inactive: 0.922
3,GGAUUUCAAGACAUACAAGTT against Tsnaxip1,inactive: 0.292
4,GCCCGAAUACAGGAAGAUCTT against Hspg2,inactive: 1.42
5,GGCCAGCAGUGUUUUUCUUTT against Acvr1,inactive: -0.29
6,GGGAGAAUUGUAGAUUAUUTT against Myo10,inactive: 0.475
7,GGUAUUGAAAUGGAAAAGGTT against D6Wsu163e,inactive: -1.2
8,GCAGGUGGAUCUUAUAUGGTT against Cabin1,inactive: -0.405
9,CGUCUAUUCGUAAUGAUUUTT against Tmbim7,inactive: -1.01
10,CCUACAAACCUGCUUAUCCTT against Srebf2,inactive: -0.424
11,CGGUGUAUCAAGUAAGGUGTT against Aup1,inactive: 0.179
12,ACAGUGUCUGGCAUCAAACTT against Mrgpra5,inactive: 0.205
13,CCAUAUGCAACCGUUACUUTT against Ciz1,inactive: 0.441
14,GGCCCACAGUUUGUGACUGTT against Larp7,inactive: -1.1
15,GGAUGCCCAUCGUUAUGGUTT against Dis3l,inactive: -0.692
16,GGAACUGAAGGGACAGGAATT against Uchl1,inactive: -0.862
17,GGUGGACUCUCUCUCAGAATT against Scara3,inactive: 0.496
18,CCUGGUGCCUUUAUCUACCTT against Ctxn1,inactive: 0.907
19,CCUAAAUUCGGUUUGAAUCTT against Fat1,inactive: -0.0213
20,GGUGCUCUGUAUAAUUGGUTT against Gm11487,inactive: 0.178
21,GGUUCCGAAUGGAGACUUGTT against Cypt3,inactive: 1.46
22,GGGAUUCCUGAAGCUUCUCTT against Serpinb9b,inactive: -0.151
